# Structures can show the parent of a compound that is named as a salt. Some of the results follow. Repeats in this data set agree poorly, so a single value says little.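 Cells: ReNCell VM human fetal ventral-midbrain neural progenitors, differentiated mitogen-free. Blinded raters compared doublecortin-stained (early neurons) or tyrosine hydroxylase-stained (dopaminergic neurons) images with untreated wells, where 0 means no change. After repeats and both raters were averaged, compounds scoring 2 or above became hits for retesting.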
# Columns and labels:
# ReNCell VM [1] = test: neuronal differentiation score (DCX+ cell fraction vs untreated, manual image score) (score (-3 to 3)); higher = more neuronal differentiation; conditions: 2 uM, 2 weeks
# ReNCell VM [2] = test: dopaminergic neuron differentiation score (TH+ cell fraction vs untreated, manual image score) (score (0 to 3)); higher = more TH+ dopaminergic neuron differentiation; conditions: 2 uM, 4 weeks, BDNF 10 ng/ml + GDNF 10 ng/ml
structure (smiles),measurement,setting,value
c1ccc(CC2=NCCN2)cc1,neuronal differentiation score,ReNCell VM [1]; library: Spectrum,inactive: 1
same,dopaminergic neuron differentiation score,ReNCell VM [2]; library: Spectrum,inactive: 0
CC(C)c1ccc2c(c1)CCC1[C@](C)(CN)CCC[C@]21C (some centres undefined),neuronal differentiation score,ReNCell VM [1]; library: Spectrum,inactive: 0
same,dopaminergic neuron differentiation score,ReNCell VM [2]; library: Spectrum,inactive: 0
CC(NC1CSCC1O)=C1C(=O)CC2C1C2(C)C (centres undefined),neuronal differentiation score,ReNCell VM [1]; library: Natural,inactive: 0
same,dopaminergic neuron differentiation score,ReNCell VM [2]; library: Natural,inactive: 0
O=C(O)[C@H]1/C(=C/CO)O[C@@H]2CC(=O)N21 [Clavulanate potassium salt],neuronal differentiation score,ReNCell VM [1]; library: Prestwick,inactive: 0
same,dopaminergic neuron differentiation score,ReNCell VM [2]; library: Prestwick,inactive: 0
CC[N+](C)(CC)CCC[n+]1c(-c2ccccc2)c2cc(N)ccc2c2ccc(N)cc21 [Propidium iodide],neuronal differentiation score,ReNCell VM [1]; library: Prestwick,inactive: -3
same,dopaminergic neuron differentiation score,ReNCell VM [2]; library: Prestwick,inactive: 0
COc1ccccc1O,neuronal differentiation score,ReNCell VM [1]; library: Spectrum,inactive: 0
same,dopaminergic neuron differentiation score,ReNCell VM [2]; library: Spectrum,inactive: 0
CN1CCCC(n2nc(Cc3ccc(Cl)cc3)c3ccccc3c2=O)CC1 (centres undefined),neuronal differentiation score,ReNCell VM [1]; library: Spectrum,inactive: 0
same,dopaminergic neuron differentiation score,ReNCell VM [2]; library: Spectrum,inactive: 0
CCN(CC)CCCC(C)Nc1c2ccc(Cl)cc2nc2ccc(OC)cc12 (centres undefined) [Quinacrine dihydrochloride],neuronal differentiation score,ReNCell VM [1]; library: LOPAC,inactive: 0
same,dopaminergic neuron differentiation score,ReNCell VM [2]; library: LOPAC,inactive: 0
COc1cc(-c2coc3cc(OC)c(OC)c(OC)c3c2=O)cc(OC)c1OC,neuronal differentiation score,ReNCell VM [1]; library: Spectrum,inactive: 0
same,dopaminergic neuron differentiation score,ReNCell VM [2]; library: Spectrum,inactive: 0
COc1ccc(C(=O)O)c(O)c1OC,neuronal differentiation score,ReNCell VM [1]; library: Spectrum,inactive: 0
same,dopaminergic neuron differentiation score,ReNCell VM [2]; library: Spectrum,inactive: 0
Nc1nc2c(ccc3ccccc32)s1,neuronal differentiation score,ReNCell VM [1]; library: Tocriscreen,inactive: 0
same,dopaminergic neuron differentiation score,ReNCell VM [2]; library: Tocriscreen,inactive: 0
COC(=O)Nc1nc2cc(C(=O)c3ccccc3)ccc2[nH]1,neuronal differentiation score,ReNCell VM [1]; library: Spectrum,inactive: 0
same,dopaminergic neuron differentiation score,ReNCell VM [2]; library: Spectrum,inactive: 0
N=C(N)NCC1COC2(CCCCC2)O1 (centres undefined),neuronal differentiation score,ReNCell VM [1]; library: Spectrum,inactive: 0
same,dopaminergic neuron differentiation score,ReNCell VM [2]; library: Spectrum,inactive: 0
CCC1=C(C)CN(C(=O)NCCc2ccc(S(=O)(=O)NC(=O)N[C@H]3CC[C@H](C)CC3)cc2)C1=O,neuronal differentiation score,ReNCell VM [1]; library: Spectrum,inactive: 1
same,dopaminergic neuron differentiation score,ReNCell VM [2]; library: Spectrum,inactive: 0
CCc1c2c(nc3ccc(O)cc13)-c1cc3c(c(=O)n1C2)COC(=O)[C@]3(O)CC,neuronal differentiation score,ReNCell VM [1]; library: Tocriscreen,inactive: 0
same,dopaminergic neuron differentiation score,ReNCell VM [2]; library: Tocriscreen,inactive: 0
Cc1cc(C)cc(C(=O)N(C)[C@H](Cc2ccc(-c3ccccc3)cc2)C(=O)N[C@@H](Cc2c[nH]c3ccccc23)C(=O)O)c1,neuronal differentiation score,ReNCell VM [1]; library: Tocriscreen,inactive: 0
same,dopaminergic neuron differentiation score,ReNCell VM [2]; library: Tocriscreen,inactive: 0
"O=c1cc(N2CCOCC2)oc2c(-c3ccccc3)cccc12 [LY-294,002 hydrochloride]",neuronal differentiation score,ReNCell VM [1]; library: LOPAC,inactive: 0
same,dopaminergic neuron differentiation score,ReNCell VM [2]; library: LOPAC,inactive: 0
O=S(=O)(O)CCCS(=O)(=O)O,neuronal differentiation score,ReNCell VM [1]; library: Spectrum,inactive: 0
same,dopaminergic neuron differentiation score,ReNCell VM [2]; library: Spectrum,inactive: 0
O=NN(CCCl)C(=O)NCCCl [Carmustine],neuronal differentiation score,ReNCell VM [1]; library: LOPAC,inactive: 0
same,dopaminergic neuron differentiation score,ReNCell VM [2]; library: LOPAC,inactive: 0
NC(=O)NC(=O)Cc1ccccc1,neuronal differentiation score,ReNCell VM [1]; library: Spectrum,inactive: 0
same,dopaminergic neuron differentiation score,ReNCell VM [2]; library: Spectrum,inactive: 0
C[C@@H]1O[C@@H](O[C@H]2[C@H](Oc3cc(O)c4c(c3)O[C@H](c3ccc(O)cc3)CC4=O)O[C@H](CO)[C@@H](O)[C@@H]2O)[C@H](O)[C@H](O)[C@H]1O [Naringin hydrate],neuronal differentiation score,ReNCell VM [1]; library: Phytochemical,inactive: 0
same,dopaminergic neuron differentiation score,ReNCell VM [2]; library: Phytochemical,inactive: 0
O=C1c2ccccc2CCC1CNCCc1ccc(O)cc1 (centres undefined) [HEAT hydrochloride],neuronal differentiation score,ReNCell VM [1]; library: Tocriscreen,inactive: 0
same,dopaminergic neuron differentiation score,ReNCell VM [2]; library: Tocriscreen,inactive: 0
O=C1c2ccccc2C(Cc2ccncc2)(Cc2ccncc2)c2ccccc21 [XE 991 dihydrochloride],neuronal differentiation score,ReNCell VM [1]; library: Tocriscreen,inactive: 0
same,dopaminergic neuron differentiation score,ReNCell VM [2]; library: Tocriscreen,inactive: 0
O=c1cc(-c2ccccc2)oc2c(O)c(O)ccc12,neuronal differentiation score,ReNCell VM [1]; library: Spectrum,inactive: 0
same,dopaminergic neuron differentiation score,ReNCell VM [2]; library: Spectrum,inactive: 0
CSc1ccc2c(c1)N(CCC1CCCCN1C)c1ccccc1S2 (centres undefined),neuronal differentiation score,ReNCell VM [1]; library: Spectrum,inactive: 0
same,dopaminergic neuron differentiation score,ReNCell VM [2]; library: Spectrum,inactive: 0
Cc1ccc(C(=O)Cn2c3c(sc2=N)CCCC3)cc1 [Pifithrin- à hydrobromide],neuronal differentiation score,ReNCell VM [1]; library: Tocriscreen,inactive: 1
same,dopaminergic neuron differentiation score,ReNCell VM [2]; library: Tocriscreen,inactive: 0
CCOC(=O)Oc1c(OC)cc(C(=O)O[C@@H]2C[C@@H]3CN4CCc5c([nH]c6cc(OC)ccc56)[C@H]4C[C@@H]3[C@H](C(=O)OC)[C@H]2OC)cc1OC [Syrosingopine],neuronal differentiation score,ReNCell VM [1]; library: Phytochemical,inactive: 0
same,dopaminergic neuron differentiation score,ReNCell VM [2]; library: Phytochemical,inactive: 0
Cn1ccnc1S,neuronal differentiation score,ReNCell VM [1]; library: Spectrum,inactive: 0
same,dopaminergic neuron differentiation score,ReNCell VM [2]; library: Spectrum,inactive: 0
CC(=O)O[C@]1(C(C)=O)CC[C@H]2[C@@H]3C=C(C)C4=CC(=O)CC[C@]4(C)[C@H]3CC[C@@]21C [Megestrol acetate],neuronal differentiation score,ReNCell VM [1]; library: Prestwick,inactive: 0
same,dopaminergic neuron differentiation score,ReNCell VM [2]; library: Prestwick,inactive: 0
C[C@]1(OC(=O)/C=C/c2ccccc2)C[C@@H](O)[C@]2(O)C=CO[C@@H](O[C@@H]3O[C@H](CO)[C@@H](O)[C@H](O)[C@H]3O)[C@@H]21,neuronal differentiation score,ReNCell VM [1]; library: Spectrum,inactive: 0
same,dopaminergic neuron differentiation score,ReNCell VM [2]; library: Spectrum,inactive: 0
CCCCCC(=O)O[C@]1(C(C)=O)CC[C@H]2[C@@H]3CCC4=CC(=O)CC[C@]4(C)[C@H]3CC[C@@]21C,neuronal differentiation score,ReNCell VM [1]; library: Spectrum,active: 2
same,dopaminergic neuron differentiation score,ReNCell VM [2]; library: Spectrum,inactive: 0
CC1=Nc2ccc(Cl)cc2S(=O)(=O)N1,neuronal differentiation score,ReNCell VM [1]; library: Spectrum,inactive: 0
same,dopaminergic neuron differentiation score,ReNCell VM [2]; library: Spectrum,inactive: 0
CCCNC(C)(C)COC(=O)c1ccccc1,neuronal differentiation score,ReNCell VM [1]; library: Spectrum,inactive: 0
same,dopaminergic neuron differentiation score,ReNCell VM [2]; library: Spectrum,inactive: 0
CC(C)=CCCC1(C)C=Cc2c(c(C)cc3c2[nH]c2ccccc23)O1 (centres undefined) [mahanimbine],neuronal differentiation score,ReNCell VM [1]; library: Natural,inactive: 0
same,dopaminergic neuron differentiation score,ReNCell VM [2]; library: Natural,inactive: 0
COc1ccc(-c2oc3cc(OC)c(OC)c(OC)c3c(=O)c2OC)cc1,neuronal differentiation score,ReNCell VM [1]; library: Spectrum,inactive: 0
same,dopaminergic neuron differentiation score,ReNCell VM [2]; library: Spectrum,inactive: 0
"O=C1C(O)=C(O)C(=O)C(O)=C1O [Tetrahydroxy-1,4-quinone monohydrate]",neuronal differentiation score,ReNCell VM [1]; library: Prestwick,inactive: 0
same,dopaminergic neuron differentiation score,ReNCell VM [2]; library: Prestwick,inactive: 0
COC(=O)/C=C/c1cccc(N(Cc2ccc(-c3ccc(N(C)C)cc3)cc2)C(=O)C2CCCCC2)c1 [Fexaramine],neuronal differentiation score,ReNCell VM [1]; library: Tocriscreen,inactive: 0
same,dopaminergic neuron differentiation score,ReNCell VM [2]; library: Tocriscreen,inactive: 0

# — the supplement of paper PMC4635364
